Results published in article PMC11381358, “Phosphorylation of the nuclear poly(A) binding protein (PABPN1) during mitosis protects mRNA from hyperadenylation and maintains transcriptome dynamics”.
Construct, isoform or probe ends are uncertain for at least one entry.

Chains of the proteins cited; added tags and fusions are not shown. Lines headed by an entry give the natural chain unless they say otherwise; changes in a name come on top.
UniProt Q86U42: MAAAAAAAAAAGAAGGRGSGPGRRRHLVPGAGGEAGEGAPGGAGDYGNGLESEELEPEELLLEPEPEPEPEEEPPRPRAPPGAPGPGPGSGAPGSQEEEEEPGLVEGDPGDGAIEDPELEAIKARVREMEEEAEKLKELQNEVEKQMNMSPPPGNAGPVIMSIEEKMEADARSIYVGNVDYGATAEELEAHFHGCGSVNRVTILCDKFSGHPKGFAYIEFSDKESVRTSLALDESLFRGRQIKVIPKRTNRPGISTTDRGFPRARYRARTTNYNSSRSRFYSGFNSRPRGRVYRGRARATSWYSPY

Experiments:
[1] = biological target: His-MBP-PABPN1 4SA (human) (UniProt Q86U42); test: filter binding; details: 50 mM Tris-HCl pH 8.0, 100 mM KCl, 5 mM MgCl2, 2 mM EDTA, 10% glycerol, 0.2 mg/ml BSA, 0.01% NP-40, 0.5 mM DTT, 2 U/ul RNase OUT; 500 pM RNA, protein 62.5 nM-4 uM; recombinant protein; protein details: N-terminal His-MBP (uncleaved); label: 5'-32P
[2] = biological target: His-MBP-PABPN1 4SD (human) (UniProt Q86U42); test: filter binding; details: 50 mM Tris-HCl pH 8.0, 100 mM KCl, 5 mM MgCl2, 2 mM EDTA, 10% glycerol, 0.2 mg/ml BSA, 0.01% NP-40, 0.5 mM DTT, 2 U/ul RNase OUT; 500 pM RNA, protein 62.5 nM-4 uM; recombinant protein; protein details: N-terminal His-MBP (uncleaved); label: 5'-32P

“AAAAAAAAAAAAAAAAAAAAAAAAAAAAAA [poly(A)30]”: binds [1]; binds [2].
